Data reported in article doi:10.1101/2024.11.13.623339.
No constants are given. Whether binding was seen depends on the method and setting. For part of these data: Binding seen in cells or lysates may run through a third protein. Some results given as binding are weak or reduced against the parent protein; the word gives no strength. Sequences can lack the tags named with a protein.

Legend:
[1] = target: T1, ATP9A, tagged at the C-terminus with HA or FLAG (UniProt O75110); assay: co-IP
T1 sequence: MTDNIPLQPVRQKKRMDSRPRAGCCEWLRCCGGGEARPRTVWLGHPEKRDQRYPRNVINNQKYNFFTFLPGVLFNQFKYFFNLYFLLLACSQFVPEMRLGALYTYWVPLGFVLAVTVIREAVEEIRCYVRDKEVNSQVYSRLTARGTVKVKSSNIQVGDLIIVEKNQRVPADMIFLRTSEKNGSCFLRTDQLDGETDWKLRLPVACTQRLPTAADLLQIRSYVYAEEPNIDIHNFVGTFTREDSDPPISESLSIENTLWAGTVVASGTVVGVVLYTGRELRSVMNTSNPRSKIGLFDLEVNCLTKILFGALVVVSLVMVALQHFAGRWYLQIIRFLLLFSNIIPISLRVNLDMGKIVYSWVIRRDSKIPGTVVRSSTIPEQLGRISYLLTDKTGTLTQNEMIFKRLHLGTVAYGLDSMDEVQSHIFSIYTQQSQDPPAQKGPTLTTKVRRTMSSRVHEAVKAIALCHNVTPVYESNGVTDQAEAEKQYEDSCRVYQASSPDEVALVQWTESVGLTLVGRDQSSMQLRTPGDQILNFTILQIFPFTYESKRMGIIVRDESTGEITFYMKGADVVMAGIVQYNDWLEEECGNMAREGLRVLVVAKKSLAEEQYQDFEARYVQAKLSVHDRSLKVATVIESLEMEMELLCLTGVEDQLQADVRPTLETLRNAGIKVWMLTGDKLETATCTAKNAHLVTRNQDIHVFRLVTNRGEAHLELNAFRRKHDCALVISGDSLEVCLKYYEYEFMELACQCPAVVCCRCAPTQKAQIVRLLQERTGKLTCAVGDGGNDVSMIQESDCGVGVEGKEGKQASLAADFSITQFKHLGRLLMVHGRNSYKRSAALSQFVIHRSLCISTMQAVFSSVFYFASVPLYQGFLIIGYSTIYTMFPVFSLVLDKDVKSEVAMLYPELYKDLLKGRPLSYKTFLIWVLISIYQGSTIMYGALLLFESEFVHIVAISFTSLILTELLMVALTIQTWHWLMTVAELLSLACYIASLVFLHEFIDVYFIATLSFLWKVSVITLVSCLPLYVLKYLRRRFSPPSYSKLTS

[2] = target: T2, ATP9B, tagged at the C-terminus with HA or FLAG (UniProt O43861); assay: co-IP
T2 sequence: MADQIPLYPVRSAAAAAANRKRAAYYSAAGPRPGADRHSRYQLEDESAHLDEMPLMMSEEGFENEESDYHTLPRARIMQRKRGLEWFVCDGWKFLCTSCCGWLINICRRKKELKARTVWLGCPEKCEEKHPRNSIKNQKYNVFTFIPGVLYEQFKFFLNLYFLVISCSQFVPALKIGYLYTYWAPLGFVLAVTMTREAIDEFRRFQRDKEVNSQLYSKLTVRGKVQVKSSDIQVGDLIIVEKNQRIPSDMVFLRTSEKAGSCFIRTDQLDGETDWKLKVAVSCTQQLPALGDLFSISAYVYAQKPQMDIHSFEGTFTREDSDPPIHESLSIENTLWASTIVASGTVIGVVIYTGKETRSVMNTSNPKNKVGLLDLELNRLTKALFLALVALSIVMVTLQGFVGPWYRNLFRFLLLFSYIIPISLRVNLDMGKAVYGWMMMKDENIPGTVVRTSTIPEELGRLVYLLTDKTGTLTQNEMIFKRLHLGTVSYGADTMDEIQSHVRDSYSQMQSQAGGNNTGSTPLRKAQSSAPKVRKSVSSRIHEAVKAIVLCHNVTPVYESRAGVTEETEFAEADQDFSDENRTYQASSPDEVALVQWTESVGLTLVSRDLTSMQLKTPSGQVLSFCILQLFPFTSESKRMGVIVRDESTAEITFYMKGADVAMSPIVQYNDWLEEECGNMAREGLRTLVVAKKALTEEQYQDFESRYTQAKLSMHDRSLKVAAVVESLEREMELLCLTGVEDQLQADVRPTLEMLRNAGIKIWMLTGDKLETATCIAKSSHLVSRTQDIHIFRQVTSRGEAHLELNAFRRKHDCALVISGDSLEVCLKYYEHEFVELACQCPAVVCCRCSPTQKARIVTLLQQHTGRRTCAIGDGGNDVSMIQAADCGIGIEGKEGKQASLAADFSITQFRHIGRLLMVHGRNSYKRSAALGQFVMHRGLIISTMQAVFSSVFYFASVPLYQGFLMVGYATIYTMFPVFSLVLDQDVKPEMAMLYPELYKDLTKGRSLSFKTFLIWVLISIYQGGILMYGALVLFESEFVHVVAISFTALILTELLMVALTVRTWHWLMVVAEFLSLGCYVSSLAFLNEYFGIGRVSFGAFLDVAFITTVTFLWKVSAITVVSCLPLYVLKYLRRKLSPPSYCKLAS

[3] = target: T1, ATP9A, tagged at the C-terminus with HA or FLAG; assay: native gel or EMSA
[4] = target: T2, ATP9B, tagged at the C-terminus with HA or FLAG; assay: native gel or EMSA

Measured: binding

B1: ATP9A, tagged at the C-terminus with HA or FLAG (protein, UniProt O75110 1-1047)
chain: T1 sequence
binds: [1] | [2] | [3]

B2: ATP9B, tagged at the C-terminus with HA or FLAG (protein, UniProt O43861 1-1147)
chain: T2 sequence
binds: [1] | [2] | [4]
